From article PMC4905479
These are yes or no findings as the source states them, for the method shown. Binding seen in cells or lysates may run through a third protein. Some entries that bind do so weakly or less than the wild type.

The chains behind the UniProt entries cited, without tags or fusion partners.
UniProt O14746: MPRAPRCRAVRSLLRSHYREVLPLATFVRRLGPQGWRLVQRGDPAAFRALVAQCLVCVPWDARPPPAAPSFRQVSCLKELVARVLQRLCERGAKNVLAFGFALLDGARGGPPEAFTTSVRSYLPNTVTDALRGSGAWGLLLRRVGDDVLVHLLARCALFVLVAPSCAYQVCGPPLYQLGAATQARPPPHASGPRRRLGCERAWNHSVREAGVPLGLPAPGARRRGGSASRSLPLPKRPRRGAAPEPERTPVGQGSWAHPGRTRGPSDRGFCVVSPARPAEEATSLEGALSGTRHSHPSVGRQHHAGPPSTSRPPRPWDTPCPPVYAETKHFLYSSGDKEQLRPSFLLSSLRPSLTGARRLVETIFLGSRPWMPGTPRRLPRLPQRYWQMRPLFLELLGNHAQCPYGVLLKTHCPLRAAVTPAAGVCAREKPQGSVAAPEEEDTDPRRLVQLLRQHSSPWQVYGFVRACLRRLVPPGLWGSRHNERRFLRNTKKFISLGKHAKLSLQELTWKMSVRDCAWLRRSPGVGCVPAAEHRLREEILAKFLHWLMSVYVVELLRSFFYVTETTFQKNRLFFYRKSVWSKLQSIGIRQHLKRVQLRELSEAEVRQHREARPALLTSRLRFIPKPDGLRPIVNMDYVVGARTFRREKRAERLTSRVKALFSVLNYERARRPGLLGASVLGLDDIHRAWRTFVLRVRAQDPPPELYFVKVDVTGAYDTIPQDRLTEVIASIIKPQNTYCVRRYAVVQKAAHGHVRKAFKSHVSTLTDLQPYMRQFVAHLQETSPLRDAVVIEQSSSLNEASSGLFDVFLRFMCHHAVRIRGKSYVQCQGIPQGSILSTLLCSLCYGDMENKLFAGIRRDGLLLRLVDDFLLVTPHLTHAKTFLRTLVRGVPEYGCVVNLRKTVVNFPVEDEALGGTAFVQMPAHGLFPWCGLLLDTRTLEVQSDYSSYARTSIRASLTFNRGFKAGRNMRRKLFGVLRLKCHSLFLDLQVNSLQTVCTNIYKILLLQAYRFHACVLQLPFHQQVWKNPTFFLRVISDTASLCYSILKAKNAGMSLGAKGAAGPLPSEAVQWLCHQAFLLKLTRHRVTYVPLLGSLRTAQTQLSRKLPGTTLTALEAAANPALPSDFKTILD
UniProt P01106: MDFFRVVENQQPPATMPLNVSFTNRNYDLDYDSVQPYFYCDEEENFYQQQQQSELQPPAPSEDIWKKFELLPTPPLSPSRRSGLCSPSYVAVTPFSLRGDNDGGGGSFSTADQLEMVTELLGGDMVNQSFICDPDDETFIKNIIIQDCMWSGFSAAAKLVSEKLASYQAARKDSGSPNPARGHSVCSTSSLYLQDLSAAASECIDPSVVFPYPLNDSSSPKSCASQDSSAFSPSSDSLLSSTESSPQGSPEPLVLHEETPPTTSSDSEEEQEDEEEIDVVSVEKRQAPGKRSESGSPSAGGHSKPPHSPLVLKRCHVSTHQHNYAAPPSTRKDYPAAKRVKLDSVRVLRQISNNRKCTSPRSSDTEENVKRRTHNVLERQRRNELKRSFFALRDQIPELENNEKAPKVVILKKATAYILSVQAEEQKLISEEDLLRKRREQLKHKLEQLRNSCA

Legend:
[1] = molecular target: Human telomerase reverse transcriptase (human (endogenous in SGC7901)) (UniProt O14746); experiment: co-IP; cytoplasm and nuclear lysates of SGC7901 cells; IP with anti-hTERT or anti-c-Myc, then immunoblot
[2] = molecular target: Human telomerase reverse transcriptase (human (endogenous in SGC7901)) (UniProt O14746); experiment: co-IP; total cell lysates of SGC7901 cells (same results in MKN45); 500 ug extract with 5 ug anti-hTERT or anti-c-Myc antibody, 4 h at 4°C, Protein G magnetic beads, four washes; rabbit IgG as negative control; also after hTERT overexpression or hTERT knock-down (Figure 3G)

c-Myc (from UniProt P01106 1-454) was tested, and the binding [1] was “binds” and the binding [2] was “binds”.
